The experiment deals with T1, HA-tagged RACK7 (wild type) (UniProt Q9ULU4).
T1 sequence: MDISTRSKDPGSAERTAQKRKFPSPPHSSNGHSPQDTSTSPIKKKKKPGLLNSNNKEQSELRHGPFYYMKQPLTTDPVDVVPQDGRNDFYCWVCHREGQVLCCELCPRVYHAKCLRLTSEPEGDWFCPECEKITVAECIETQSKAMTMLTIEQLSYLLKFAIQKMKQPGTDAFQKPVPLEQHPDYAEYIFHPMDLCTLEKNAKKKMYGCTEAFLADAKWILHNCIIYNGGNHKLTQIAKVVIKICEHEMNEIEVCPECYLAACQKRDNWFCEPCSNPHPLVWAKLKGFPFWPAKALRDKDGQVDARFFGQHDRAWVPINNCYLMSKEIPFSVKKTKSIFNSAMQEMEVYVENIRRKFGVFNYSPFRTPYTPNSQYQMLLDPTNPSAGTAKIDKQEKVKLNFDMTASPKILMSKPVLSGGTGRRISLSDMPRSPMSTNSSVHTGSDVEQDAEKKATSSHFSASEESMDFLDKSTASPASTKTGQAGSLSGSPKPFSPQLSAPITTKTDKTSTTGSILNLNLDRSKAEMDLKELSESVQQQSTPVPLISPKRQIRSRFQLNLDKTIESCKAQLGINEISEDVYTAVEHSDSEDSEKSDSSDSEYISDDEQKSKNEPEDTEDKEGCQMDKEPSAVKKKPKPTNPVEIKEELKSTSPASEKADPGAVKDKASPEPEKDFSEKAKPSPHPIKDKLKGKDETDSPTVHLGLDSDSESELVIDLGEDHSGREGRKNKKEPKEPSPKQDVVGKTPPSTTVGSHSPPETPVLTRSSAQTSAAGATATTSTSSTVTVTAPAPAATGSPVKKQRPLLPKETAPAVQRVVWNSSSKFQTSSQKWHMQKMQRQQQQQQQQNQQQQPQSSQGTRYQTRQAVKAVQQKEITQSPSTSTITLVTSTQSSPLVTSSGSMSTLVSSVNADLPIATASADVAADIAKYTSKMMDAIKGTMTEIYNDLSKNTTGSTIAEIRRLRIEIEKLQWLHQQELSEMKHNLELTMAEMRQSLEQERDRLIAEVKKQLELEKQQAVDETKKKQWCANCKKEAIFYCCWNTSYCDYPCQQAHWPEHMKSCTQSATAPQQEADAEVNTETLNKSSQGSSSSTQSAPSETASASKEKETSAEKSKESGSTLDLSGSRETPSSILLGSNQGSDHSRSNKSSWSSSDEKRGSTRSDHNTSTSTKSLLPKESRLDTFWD
Put plainly: co-IP.

Drawing on article doi:10.1101/2024.02.07.579305, this text covers binding for two substances.

These are yes or no findings as the source states them, for the method shown. Binding seen in cells or lysates may run through a third protein. Binding calls can cover weak binding; strength is not graded here. Tags and fused reporters may be left off the sequences shown.

Consider endogenous INTS15, for which the binding result is “binds”.

For the substance endogenous INTS10, the binding result is recorded as “binds”.
